{"source": "patent US9408925B2", "about": "“Hyperpolarized lactate contrast agent for determination of LDH activity” (GE Healthcare Limited, priority 2010, dated 2016)", "system": "EL4 lymphoma tumors", "test": "T2 measurements in vivo, multi-echo experiment in tumors", "design": "species or system murine", "excerpt": "The time to echo in the hetero-nuclear spin echo experiment is 300 ms (see FIG. 3), therefore it is essential that the ^13C resonance has a long T2. We have previously measured transverse relaxation times for [1-^13C] lactate in EL4 lymphoma tumors in vivo at 9.4 T following injection of [1-^13C]pyruvate, see Kettunen, M. I., et al. Magnetization transfer measurements of exchange between hyperpolarized [1-^13C]pyruvate and [1-^13C] lactate in a murine lymphoma. Magn Reson Med 63, 872-880 (2010). […] For lactate (n=8), three components were fitted to the experimental data (FIG. 9), a short T2 component (0.13±0.09 s, 31±21%), a medium T2 component (0.75±0.20 s, 52±16%) and a long T2 component (2.2±0.7 s, 23±15%). Similar multi-exponential behavior has also been reported at 3 T, see Yen, Y., et al. Signal Enhancement in Low-Dose Hyperpolarized 13C Imaging Using Multi-Slice […] Sequence. in Proc Intl Soc Mag Res Med, Vol. 16 890 (Toronto, 2008). Therefore with an echo time of 300 ms, nearly 60% of the total [1-^13C] lactate signal will remain.", "key": {"[1]": {"conditions": "9.4 T, following injection of [1-13C]pyruvate, n=8"}}, "data": [{"smiles": "C[C@H](O)[13C](=O)[O-].[Na+]", "note": "[L-[1-^13C1] lactate, Sodium L-[1-^13C1] lactate]", "values": [{"measurement": "long T2 component", "setting": "[1]", "result": "2.2 ± 0.7", "unit": "s"}, {"measurement": "long T2 component contribution", "setting": "[1]", "result": "23±15", "unit": "%"}, {"measurement": "medium T2 component", "setting": "[1]", "result": "0.75 ± 0.20", "unit": "s"}, {"measurement": "medium T2 component contribution", "setting": "[1]", "result": "52±16", "unit": "%"}, {"measurement": "short T2 component", "setting": "[1]", "result": "0.13 ± 0.09", "unit": "s"}, {"measurement": "short T2 component contribution", "setting": "[1]", "result": "31±21", "unit": "%"}, {"measurement": "total signal remaining", "setting": "echo time of 300 ms", "result": "~60", "unit": "%"}]}]}
